Paper PMC3813506 (2013)
No constants are given. Whether binding was seen depends on the method and setting.

Biological target: T1, Nupr1 (recombinant), O60356
T1 chain: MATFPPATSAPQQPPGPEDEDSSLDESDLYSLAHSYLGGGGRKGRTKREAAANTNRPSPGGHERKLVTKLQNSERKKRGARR
Test: ITC; heat of dilution: the protein injected into buffer only; 25°C, 10 mM acetate buffer pH 4.5; both purified
Details: remark: other sources report otherwise

B1: Nupr1 (recombinant), O60356 1-82 (protein)
chain: T1 chain
binding: no binding (tested: 40 µM in the syringe)
